The results in this text go back to article PMC12914105.

Protein sequences, listed by entry. Tags and fused reporters are not part of them. Residues count along the entry.
UniProt P14625, residues 22-803: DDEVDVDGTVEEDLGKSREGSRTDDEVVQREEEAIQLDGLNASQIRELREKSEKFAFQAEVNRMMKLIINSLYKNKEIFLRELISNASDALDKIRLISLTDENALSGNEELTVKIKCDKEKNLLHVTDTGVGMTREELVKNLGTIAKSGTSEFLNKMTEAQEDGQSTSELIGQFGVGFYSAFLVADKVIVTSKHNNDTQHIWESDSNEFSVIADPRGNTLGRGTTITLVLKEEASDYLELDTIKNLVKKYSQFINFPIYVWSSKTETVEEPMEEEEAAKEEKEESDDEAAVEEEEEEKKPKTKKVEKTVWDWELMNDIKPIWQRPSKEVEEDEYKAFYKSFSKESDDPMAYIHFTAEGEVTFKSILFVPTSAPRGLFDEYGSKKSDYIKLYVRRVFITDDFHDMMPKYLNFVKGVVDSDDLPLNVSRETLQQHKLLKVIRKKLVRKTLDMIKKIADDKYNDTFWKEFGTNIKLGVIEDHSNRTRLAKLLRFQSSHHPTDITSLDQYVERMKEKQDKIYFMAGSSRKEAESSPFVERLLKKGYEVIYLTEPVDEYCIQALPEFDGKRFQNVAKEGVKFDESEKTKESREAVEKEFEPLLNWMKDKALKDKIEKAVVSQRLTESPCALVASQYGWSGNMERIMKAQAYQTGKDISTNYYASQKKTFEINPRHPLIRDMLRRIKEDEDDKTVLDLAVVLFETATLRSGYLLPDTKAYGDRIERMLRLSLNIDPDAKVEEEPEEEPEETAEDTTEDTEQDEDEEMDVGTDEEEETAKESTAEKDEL
UniProt P08134: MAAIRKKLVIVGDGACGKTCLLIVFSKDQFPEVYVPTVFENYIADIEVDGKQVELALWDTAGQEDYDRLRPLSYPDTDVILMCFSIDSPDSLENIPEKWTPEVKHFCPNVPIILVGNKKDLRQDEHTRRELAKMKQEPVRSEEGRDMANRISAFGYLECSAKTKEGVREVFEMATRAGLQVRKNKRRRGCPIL

Results are given in words; binding and its absence hold for the method and conditions named. Binding seen in cells or lysates may run through a third protein. A yes stands for co-enrichment or nearness to the bait. Other partners may have been found.

The test deals with heat shock protein 90 beta family member 1 (HSP90B1) (human (endogenous in LN229)) (UniProt P14625). Briefly: affinity purification with mass spectrometry; HSP90B1 immunoprecipitated from cell lysate, silver staining of the sample, LC-MS of the bound proteins; cell line not stated.

Take “ras homolog family member C (RhoC) (from UniProt P08134 1-193)”: the binding entry is reported as “binds”.
